# PubChem BioAssay AID493246, Drosophila RNAi Screening Center – 2011
# Assay: 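Genes fly cells need to grow and stay alive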 (primary screen)
# Cell system: Drosophila Kc and S2R+ cells
# Knock-down reagent: long dsRNA against Drosophila genes
# Read-out: 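Raw, unnormalised count of remaining cells in each well; per-plate z-scores of cell number underlie the calls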
# Scale: Kc cell number and S2R+ cell number: higher = more cells remaining
# Hit rule: 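Counted as a hit if cell number falls by a z-score of at least 3 within its plate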
# The deposit covers about 21,000 reagents; this is an unselected part of those that have a named target and a result. Of all reagents, 429 (2%) got an active call. 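Values are raw and not normalised between plates; calls rest on per-plate z-scores that were not deposited.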 A plus sign joins genes that one reagent is predicted to hit. Not given: the amount of reagent, the time to read-out.
target gene,DRSC id,"Kc cell number, rep 1","Kc cell number, rep 2","S2R+ cell number, rep 1","S2R+ cell number, rep 2",activity call
babo (baboon),DRSC07581,1.52e6,1.53e6,1.27e6,1.34e6,inactive
Secp43 (tRNA Selenocysteine associated protein),DRSC00454,1.52e6,1.51e6,1.10e6,1.23e6,inactive
CG1827,DRSC06719,1.31e6,1.34e6,1.01e6,1.06e6,inactive
tbrd-3,DRSC04295,1.55e6,1.66e6,1.21e6,1.36e6,inactive
Pkc53E (Protein C kinase 53E),DRSC05636,5.94e5,,8.00e5,,inactive
Pkc53E (Protein C kinase 53E),DRSC07510,1.42e6,1.47e6,1.30e6,1.33e6,inactive
ms(2)34Fe (male sterile (2) 34Fe),DRSC01905,1.54e6,1.61e6,1.26e6,1.41e6,inactive
CG30043,DRSC06285,1.44e6,1.52e6,1.20e6,1.43e6,inactive
CG34161,DRSC01132,1.44e6,1.47e6,1.02e6,1.15e6,inactive
Cp38 (Chorion protein 38),DRSC18453,1.57e6,1.53e6,1.08e6,1.19e6,inactive
CG33255 (retired record) + hpRNA:CR32205 + hpRNA:CR32207,DRSC09617,1.36e6,1.46e6,1.09e6,1.27e6,inactive
Gr47b (Gustatory receptor 47b),DRSC05275,1.41e6,1.43e6,9.93e5,1.13e6,inactive
Psf2 (Partner of Sld Five 2),DRSC00516,1.68e6,1.66e6,1.22e6,1.44e6,inactive
mh (maternal haploid),DRSC20168,1.45e6,1.47e6,9.45e5,1.02e6,inactive
Vmat + CG13330,DRSC06365,1.44e6,1.53e6,1.11e6,1.14e6,inactive
Spg7 (Paraplegin),DRSC18469,1.45e6,1.49e6,9.55e5,1.11e6,inactive
CG13067,DRSC09950,1.33e6,1.58e6,1.33e6,1.63e6,inactive
CG5850,DRSC02905,1.28e6,1.30e6,1.10e6,1.21e6,inactive
CG10510,DRSC11614,1.25e6,1.48e6,1.26e6,1.38e6,inactive
"Dnah3 (dynein, axonemal, heavy chain 3)",DRSC08130,1.49e6,1.42e6,9.57e5,1.14e6,inactive
"Dnah3 (dynein, axonemal, heavy chain 3)",DRSC08513,1.62e6,1.58e6,1.28e6,1.19e6,inactive
conu (conundrum),DRSC07810,1.55e6,1.51e6,9.86e5,1.15e6,inactive
Leash,DRSC15617,1.58e6,1.57e6,1.32e6,1.39e6,inactive
CG14453,DRSC11710,1.38e6,1.35e6,1.03e6,1.11e6,inactive
CG4914,DRSC10458,1.35e6,1.44e6,1.30e6,1.38e6,inactive
"ProRS-m (Prolyl-tRNA synthetase, mitochondrial)",DRSC08261,1.45e6,1.09e6,1.12e6,1.30e6,inactive
CG7054,DRSC16185,1.56e6,1.70e6,1.17e6,1.21e6,inactive
Ugt35E1 (UDP-glycosyltransferase family 35 member E1),DRSC15193,1.71e6,1.60e6,1.26e6,1.39e6,inactive
CG13377,DRSC18622,1.51e6,1.52e6,1.14e6,1.29e6,inactive
mnd (minidiscs),DRSC11370,1.44e6,1.45e6,1.22e6,1.35e6,inactive
Cyp28a5 (Cytochrome P450 28a5),DRSC03297,1.54e6,1.60e6,1.27e6,1.18e6,inactive
CG31516,DRSC11994,1.22e6,1.54e6,1.13e6,1.36e6,inactive
CG33635,DRSC00006,1.62e6,1.66e6,1.03e6,1.10e6,inactive
Gpo2 (Glycerophosphate oxidase 2),DRSC06822,1.76e6,1.96e6,1.22e6,1.37e6,inactive
frtz (fritz),DRSC00512,1.52e6,1.59e6,1.04e6,1.14e6,inactive
CG3097,DRSC18275,1.74e6,1.79e6,1.14e6,1.25e6,inactive
CG3698,DRSC11749,1.64e6,1.71e6,1.46e6,1.51e6,inactive
grh (grainy head),DRSC05680,7.04e5,,8.63e5,,inactive
grh (grainy head),DRSC05683,5.24e5,,7.26e5,,inactive
grh (grainy head),DRSC07624,1.29e6,1.40e6,1.05e6,1.21e6,inactive
grh (grainy head),DRSC07625,1.48e6,1.51e6,1.16e6,1.29e6,inactive
CG8654,DRSC07231,1.34e6,1.33e6,1.11e6,1.10e6,inactive
CG14662,DRSC12248,1.77e6,1.71e6,1.40e6,1.39e6,inactive
Prx6a (Peroxiredoxin 6a),DRSC00565,1.37e6,1.36e6,7.71e5,8.98e5,inactive
CG10919,DRSC14283,1.44e6,1.55e6,1.23e6,1.33e6,inactive
APP-BP1 (beta-Amyloid precursor protein binding protein 1),DRSC10920,1.27e6,1.26e6,1.35e6,1.46e6,inactive
Dys + snoRNA:Me18S-A1374,DRSC16232,1.35e6,1.31e6,1.03e6,1.17e6,inactive
CG18808,DRSC08539,1.28e6,1.36e6,1.11e6,1.15e6,inactive
Wdr59 (WD repeat domain 59),DRSC02771,1.41e6,1.44e6,1.11e6,1.15e6,inactive
CG7655,DRSC16275,1.63e6,1.76e6,1.20e6,1.25e6,inactive
Pepck2 (Phosphoenolpyruvate carboxykinase 2),DRSC06013,1.90e6,1.95e6,1.25e6,1.40e6,inactive
HisT (Histamine transporter),DRSC05051,1.45e6,1.52e6,9.81e5,1.03e6,inactive
HisT (Histamine transporter),DRSC05052,1.42e6,1.36e6,8.92e5,1.04e6,inactive
HisT (Histamine transporter),DRSC06405,1.25e6,1.38e6,8.02e5,8.42e5,inactive
CG7196 (retired record),DRSC01000,1.45e6,1.51e6,1.01e6,1.11e6,inactive
CG7196 (retired record),DRSC03023,1.54e6,1.56e6,1.05e6,1.24e6,inactive
CG5280,DRSC10498,1.36e6,1.29e6,1.26e6,1.28e6,inactive
CG15333,DRSC18016,1.47e6,1.51e6,1.04e6,1.09e6,inactive
CG15333,DRSC18153,1.46e6,1.43e6,1.04e6,1.09e6,inactive
